From PMC7819943, “Rice protein-binding microarrays: a tool to detect cis-acting elements near promoter regions in rice”
The list shows a part of the results.

Amino acid sequences for entries named in this document (tags omitted).
UniProt Q0JBA9, entry or part of it: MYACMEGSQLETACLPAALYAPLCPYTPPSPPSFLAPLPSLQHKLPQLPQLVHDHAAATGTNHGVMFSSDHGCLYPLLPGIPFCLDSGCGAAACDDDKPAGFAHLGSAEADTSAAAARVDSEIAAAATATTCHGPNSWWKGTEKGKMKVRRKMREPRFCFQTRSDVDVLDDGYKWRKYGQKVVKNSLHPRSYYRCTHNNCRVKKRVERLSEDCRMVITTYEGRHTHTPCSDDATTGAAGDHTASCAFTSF

What follows are sequences tested against OsWRKY34 (Oryza sativa, UniProt Q0JBA9 1-250) (assay: protein-binding microarray (RPBM); PBS, 2% BSA, 51.3 ng/ul salmon testes DNA, 50 uM zinc acetate, 200 nM TF, 25 C, 1 h; high values mean tight binding). Settings: protein: recombinant; tags: N-terminal polyhistidine and DsRed monomer fusion (pET32a); label: CyDye5-dUTP incorporated in the synthesized complementary strand; 3' TTTTT single-stranded linker to array surface; dsDNA, one strand shown.
In short: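 A custom Agilent array was converted to double-stranded form by primer extension with Cy5-dUTP and blocked with 2% BSA. Protein at 200 nM in PBS with 2% BSA, salmon testes DNA and 50 µM zinc acetate was applied for 1 h at 25 °C, followed by washing. The proteins were polyhistidine–DsRed N-terminal fusions of transcription factors, expressed in E. coli BL21-CodonPlus and Ni–NTA-purified. The binding signal is per-feature fluorescence intensity (arbitrary units) from an Axon 4000B scanner.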

In order of falling binding signal:
1. TAACACCGTTGACTTTTTAGCTCATGTTTGACCATTCGTCCGGAGTCACCTAGTGCAG  27400 fluorescence intensity (a.u.)
2. GTAGGCTTTTGTTTCGGGTGGGATAATATCTTGGGGAAAGCGGAGTCACCTAGTGCAG  20700 fluorescence intensity (a.u.)
3. GTCCGTCTTGTTTTCTCCTGCGTCACAATTGTCCCGTATTCGGAGTCACCTAGTGCAG  18500 fluorescence intensity (a.u.)
4. GTGAAAAATTTTTGGGTGGGATCTTAACAGGGCGCGCGTACGGAGTCACCTAGTGCAG  16300 fluorescence intensity (a.u.)
5. AATGTTAACGGTGCATGTGGTTGGTTGATTTGATTAGTGACGGAGTCACCTAGTGCAG  15300 fluorescence intensity (a.u.)
6. TGACTGGTTCGCGCCCTTTTTTTTTTCTCTCCCGCGTTTTCGGAGTCACCTAGTGCAG  15300 fluorescence intensity (a.u.)
7. GATCTGGCCATGGGGTAGCCTGGGTGGGTTGGGTGGGTGGCGGAGTCACCTAGTGCAG  14200 fluorescence intensity (a.u.)
8. AGAATTACTGCTGCTTTATTTACTTTTCTTCCATTGGTTTCGGAGTCACCTAGTGCAG  13000 fluorescence intensity (a.u.)
9. GTGTTGCATTGGCTTTTACTGTTTTACATTTTGCAATTTTCGGAGTCACCTAGTGCAG  12200 fluorescence intensity (a.u.)
10. TCTATGTTTGTTCTACCGATTCTTCGTCTCATCTGTTGCACGGAGTCACCTAGTGCAG  11700 fluorescence intensity (a.u.)
11. TCTCTCCCGCTCACTCTTGCTACCTCCGCGCGCGCCTTGTCGGAGTCACCTAGTGCAG  11600 fluorescence intensity (a.u.)
12. ACCCTCCATGTCATCTAGTTTTCATAGCATTAAATACATTCGGAGTCACCTAGTGCAG  11400 fluorescence intensity (a.u.)
13. CTTCCTTTTGTGTAGATAACTTTGCATGCTTCTGGCCAACCGGAGTCACCTAGTGCAG  11400 fluorescence intensity (a.u.)
14. TGACACCGTTACATTTTCTCTTAATTATTCGGCATCAAGTCGGAGTCACCTAGTGCAG  11300 fluorescence intensity (a.u.)
15. TTCCTGCTGTTTCTTGTCTGAATCTTTCGCTGCGTTCTTGCGGAGTCACCTAGTGCAG  11000 fluorescence intensity (a.u.)
16. GATCTGGTCCGTTGCTTCAGCTCAGAGCTCTCACCCGTCTCGGAGTCACCTAGTGCAG  11000 fluorescence intensity (a.u.)
17. ATTCCATATTTCCATTCCACACGTCTTGAGAGCTAATCTTCGGAGTCACCTAGTGCAG  10900 fluorescence intensity (a.u.)
18. GCTTTGTTTTTTTCCATTACTCCATTATTTTGTAAAACAACGGAGTCACCTAGTGCAG  10500 fluorescence intensity (a.u.)
19. CAACTTCTAGCTCTAGGTCTCCTGTTTATTCAATCGGTTCCGGAGTCACCTAGTGCAG  10500 fluorescence intensity (a.u.)
20. TTTTGCTGTTTCTGTTAATGTTCCCGATTTTAGTAAATATCGGAGTCACCTAGTGCAG  10400 fluorescence intensity (a.u.)
21. ATCTCTCGTCATCTCCATCCTCTCTCGCCATCTCTCCTGTCGGAGTCACCTAGTGCAG  10300 fluorescence intensity (a.u.)
22. CCTCTGCAATCGGTCCAACTGCTGACTACTCCCTACATCTCGGAGTCACCTAGTGCAG  10200 fluorescence intensity (a.u.)
23. GCCGCTTGCCCTCGCAGCCGCTCCGCCTGCCTCCGCCCACCGGAGTCACCTAGTGCAG  10000 fluorescence intensity (a.u.)
24. CATATTTTGGGGTTTAGATTTTTTTGTCGGTCCAATTTTTCGGAGTCACCTAGTGCAG  9980 fluorescence intensity (a.u.)
25. TTACAATTAACACTACTGTCTATGTCTCAATTCATACTTTCGGAGTCACCTAGTGCAG  9950 fluorescence intensity (a.u.)
26. CTCATGCGGTGGGGAGGGCATCGACGGCCGCCTGTGGCTGCGGAGTCACCTAGTGCAG  9940 fluorescence intensity (a.u.)
27. CGGTTTCTTGATTTTTTTTTTATTTTTTTTTCTCCGGTGACGGAGTCACCTAGTGCAG  9730 fluorescence intensity (a.u.)
28. TTCAGTTTTTGCTTGCAATGTTTGACCATTCGTCTTATTCCGGAGTCACCTAGTGCAG  9670 fluorescence intensity (a.u.)
29. CTCGGCTAACTCGACATCAGCTTCCCGACTTTGGCTACATCGGAGTCACCTAGTGCAG  9620 fluorescence intensity (a.u.)
30. TCTCTTGTCCTTTTGGCCCATCCAATTTTGGCCTCAATTTCGGAGTCACCTAGTGCAG  9600 fluorescence intensity (a.u.)
31. TGACTAATTGATCACCACCTGTTGAATAACCATATAGACTCGGAGTCACCTAGTGCAG  9480 fluorescence intensity (a.u.)
32. TACGTTTATACCCCTGCGATCCACCGGTACAGCACCATGACGGAGTCACCTAGTGCAG  9470 fluorescence intensity (a.u.)
33. AATTTTTCTACAATTTTTACACTTAGTTTTGACCTCATTGCGGAGTCACCTAGTGCAG  9440 fluorescence intensity (a.u.)
34. ATCCCACCGCCCAGCGCCGCACCTCCTCTCCTCGTGCTCTCGGAGTCACCTAGTGCAG  9250 fluorescence intensity (a.u.)
35. AATTCGCCCAACCCTATATATTGGCCTCTAACCTCACTTCCGGAGTCACCTAGTGCAG  9240 fluorescence intensity (a.u.)
36. CTGAACTCTCGAGTCTCAACCCTCGTCGTCGTCGTCTCCACGGAGTCACCTAGTGCAG  9220 fluorescence intensity (a.u.)
37. AACCACCACTTTGTCCACTAAAACGCGCTCATGACCAATGCGGAGTCACCTAGTGCAG  9170 fluorescence intensity (a.u.)
38. CGTCGAGGTGACTCTATTCCCCTAGTTTCCTCTTTCCTTTCGGAGTCACCTAGTGCAG  9140 fluorescence intensity (a.u.)
39. CGCCGCCTTCCGTTCCATTTCCATTCCACGACAAACAAACCGGAGTCACCTAGTGCAG  9120 fluorescence intensity (a.u.)
40. TCTCTTACCACACCTCGTTTGAGTTTATCTCTTACCACCCCGGAGTCACCTAGTGCAG  9070 fluorescence intensity (a.u.)
41. AGGGTATAGGGTAATAGGGATCAAGCGGCTGATGCATACACGGAGTCACCTAGTGCAG  9070 fluorescence intensity (a.u.)
42. GTCTCGCCTCCGCCGCACTCTCCTCTCTGTCTCCGCCGATCGGAGTCACCTAGTGCAG  9040 fluorescence intensity (a.u.)
43. CGGAGCCAGTCCACTCGTGACCTTTGTCGAGCCATGATTTCGGAGTCACCTAGTGCAG  9040 fluorescence intensity (a.u.)
44. ATGTGCGTGGTGTGTTTGCCATGGCAAGGGGAGGAAGAGGCGGAGTCACCTAGTGCAG  9020 fluorescence intensity (a.u.)
45. TTACTTAAGATTCCTTTTACAGGTGACGACTCTCCTTTTCCGGAGTCACCTAGTGCAG  9000 fluorescence intensity (a.u.)
46. CCCCAGAGGTGGGCGGCAGGGTCTATTTTTGTAATTTTTTCGGAGTCACCTAGTGCAG  8990 fluorescence intensity (a.u.)
47. GTTATGTTATTATCCCACCCGAGCCACGTTATACTACCCACGGAGTCACCTAGTGCAG  8970 fluorescence intensity (a.u.)
48. TTTGCAAAATTTGCTGATGTGGCGCTCCTAACTTTCAACCCGGAGTCACCTAGTGCAG  8920 fluorescence intensity (a.u.)
49. ATGGGCTCTGCTCTTTTAATTGGGGTTACATGAGGAGGGACGGAGTCACCTAGTGCAG  8900 fluorescence intensity (a.u.)
50. GACATGTAGGCCCCACATATTTTGTTTGAACTTTTATTTTCGGAGTCACCTAGTGCAG  8890 fluorescence intensity (a.u.)
51. ATCCTGTAACCTGTGTAAGTATGCATGTTCCTTCTTTGTCCGGAGTCACCTAGTGCAG  8830 fluorescence intensity (a.u.)
52. ATCATTGAGGTCAAACTTTATCCACCTCATCATTATTCAGCGGAGTCACCTAGTGCAG  8820 fluorescence intensity (a.u.)
53. TTCGTCACACCGACTTAACACTTGGTCATTTCTCATTTGTCGGAGTCACCTAGTGCAG  8710 fluorescence intensity (a.u.)
54. CACCTATATACCATGACACAAACTTTCGTTTACCTATCTGCGGAGTCACCTAGTGCAG  8700 fluorescence intensity (a.u.)
55. TTCTCGTGGTATATGGATTGCCTTTTCTTCTTCAGACGACCGGAGTCACCTAGTGCAG  8650 fluorescence intensity (a.u.)
56. CCCATACTTGGCTGTATAACCTACCTTTTCATTCTCTATACGGAGTCACCTAGTGCAG  8640 fluorescence intensity (a.u.)
57. AATTTCACACCATGTTTAGTTGTAAATTTTTTTTTTCAAACGGAGTCACCTAGTGCAG  8640 fluorescence intensity (a.u.)
58. CGCATATATATCTCTCTTTGCATCTGTACTCATCGAATCTCGGAGTCACCTAGTGCAG  8640 fluorescence intensity (a.u.)
59. TTTCTTTTTTTTGCCTACCTTTACTTTACACCAAAAACTGCGGAGTCACCTAGTGCAG  8630 fluorescence intensity (a.u.)
60. CGGCGAGTTCTCCTCCATGGGCTTACCTCTCATGAACTATCGGAGTCACCTAGTGCAG  8630 fluorescence intensity (a.u.)
61. GATGACCAATTTTTAATCAGGCCACATCCAGTCCAACCCACGGAGTCACCTAGTGCAG  8610 fluorescence intensity (a.u.)
62. CGCATGTACACGTACTCCTTTCCCCTCCACACCCTCCGAACGGAGTCACCTAGTGCAG  8600 fluorescence intensity (a.u.)
63. ATAGATCTTCATTGAGTAAGTTCTGAATTCAAGGGTATTTCGGAGTCACCTAGTGCAG  8580 fluorescence intensity (a.u.)
64. AGTCTCCTCTTCTAATATTCCTTATTTTTTATTCCGAATTCGGAGTCACCTAGTGCAG  8550 fluorescence intensity (a.u.)
65. CTATTTCTATTCTGAACCTGCCAAATCCGTTTTATGAAAACGGAGTCACCTAGTGCAG  8530 fluorescence intensity (a.u.)
66. CCTACTTGTTGGCTTCTATCTCCTGTTAATTAATTTCTCACGGAGTCACCTAGTGCAG  8450 fluorescence intensity (a.u.)
67. TTTTTTCTTTCCTGTCCGATAATAAGTATGTCTGCTTTCCCGGAGTCACCTAGTGCAG  8440 fluorescence intensity (a.u.)
68. ACATTTCACGTGATTTTTCTCTTCTCTTCAACCGGAAATTCGGAGTCACCTAGTGCAG  8410 fluorescence intensity (a.u.)
69. ATGTCTTTCATAGTTCAATAGTTCATGGTTGTGACACTATCGGAGTCACCTAGTGCAG  8380 fluorescence intensity (a.u.)
70. TTTAATCATTTTACCATTTTCTATCCTTTACATGTTTTATCGGAGTCACCTAGTGCAG  8380 fluorescence intensity (a.u.)
71. ACAGCAGCCGCCGCGCCGGCCGCTCGCCACATTCACACGACGGAGTCACCTAGTGCAG  8370 fluorescence intensity (a.u.)
72. CTTTATAGTTCGCGTCCTCCACCTCCTCTTCCCATCTCGCCGGAGTCACCTAGTGCAG  8360 fluorescence intensity (a.u.)
73. CGACCAGTACGCGCTACTACTTCTCACTCTTTGCCGCTCGCGGAGTCACCTAGTGCAG  8340 fluorescence intensity (a.u.)
74. CCCCTCCCGCCGCCGCCACCGCCACCGCCGCCGCCGCCGGCGGAGTCACCTAGTGCAG  8330 fluorescence intensity (a.u.)
75. CTTCCGACGTCGTTCTTCCCGCACCACAACCGGACAGATCCGGAGTCACCTAGTGCAG  8320 fluorescence intensity (a.u.)
76. GTAAATCATTTTCTTACTTCATTCAAAATTTTCAATTTTTCGGAGTCACCTAGTGCAG  8250 fluorescence intensity (a.u.)
77. CGTATAATTTTTTTTGCGCGTTTGTGAAAGAAGTATTCAACGGAGTCACCTAGTGCAG  8210 fluorescence intensity (a.u.)
78. AAGCGAACGCGACTTCCCCATTATTATTTTTCTCCTCCTTCGGAGTCACCTAGTGCAG  8210 fluorescence intensity (a.u.)
79. TTGGGGATTTGTTGGTTGATCTGGGTATATATATCCCACTCGGAGTCACCTAGTGCAG  8200 fluorescence intensity (a.u.)
80. AAGATACTTAACACTTGTTCCAACCTGGACTTCAGAGCACCGGAGTCACCTAGTGCAG  8180 fluorescence intensity (a.u.)
81. GGGAGGCGAGTGGAGTGCGTGTCGACGTGTCCTACTCATCCGGAGTCACCTAGTGCAG  8110 fluorescence intensity (a.u.)
82. GCCGCTACATTCAGGGAAACATATATAGATTTGTCTTTCACGGAGTCACCTAGTGCAG  8050 fluorescence intensity (a.u.)
83. TCTTTAGAAGTTGCTTATCATGTAGAGTGTGTGTGCGTGTCGGAGTCACCTAGTGCAG  8050 fluorescence intensity (a.u.)
84. GGTTACCTCGGCAGCTAGCAGTCATCACCACCACGCGAGCCGGAGTCACCTAGTGCAG  8030 fluorescence intensity (a.u.)
